These are yes or no findings as the source states them, for the method shown. In cells and extracts the contact can be indirect. Some binding calls cover weakened binding; strength is not graded here.

The assay has as its target T1, Jmjc domain of KDM5B (truncated mutant) (UniProt Q9UGL1).
T1 sequence: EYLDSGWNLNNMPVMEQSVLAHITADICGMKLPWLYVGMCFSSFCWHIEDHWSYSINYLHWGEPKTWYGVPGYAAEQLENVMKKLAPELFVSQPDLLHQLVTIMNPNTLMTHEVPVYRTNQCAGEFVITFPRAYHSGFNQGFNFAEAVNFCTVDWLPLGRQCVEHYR
As to the kind of experiment: co-IP; 293T cells transfected with His-KDM5B and Flag-OTUD7A plasmids (whole and truncated mutants); no method of the co-IP is given.

B1: OTU domain of OTUD7A (truncated mutant) (domain or fragment, UniProt Q8TE49 199-374)
chain: LLPLATTGDGNCLLHAASLGMWGFHDRDLVLRKALYTMMRTGAEREALKRRWRWQQTQQNKEEEWEREWTELLKLASSEPRTHFSKNGGTGGGVDNSEDPVYESLEEFHVFVLAHILRRPIVVVADTMLRDSGGEAFAPIPFGGIYLPLEVPPNRCHCSPLVLAYDQAHFSALVSM
Take B1: the binding result is on record as “binds”.

For the origin of these results see publication PMC12848020.
